Data reported in patent US20220185896A1 (NEW YORK UNIVERSITY, published 2022).
Results are given in words; binding and its absence hold for the method and conditions named. Some binding calls cover weakened binding; strength is not graded here. One block for each binder: values may come before it.

Sequences of proteins named here, by UniProt entry; tags and fusion partners are left off.
UniProt O08573: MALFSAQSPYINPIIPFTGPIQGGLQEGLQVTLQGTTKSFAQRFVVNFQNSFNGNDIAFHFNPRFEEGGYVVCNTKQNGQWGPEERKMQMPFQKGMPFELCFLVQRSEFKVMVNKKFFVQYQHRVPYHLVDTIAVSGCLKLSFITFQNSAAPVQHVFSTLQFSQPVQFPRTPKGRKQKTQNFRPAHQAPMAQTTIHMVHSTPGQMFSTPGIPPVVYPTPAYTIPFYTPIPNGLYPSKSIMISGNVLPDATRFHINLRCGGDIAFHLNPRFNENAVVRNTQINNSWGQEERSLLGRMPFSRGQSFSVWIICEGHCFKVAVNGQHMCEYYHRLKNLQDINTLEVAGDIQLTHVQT

Columns and labels:
[1] = target: human galectin-9 on the cell surface (CRL-2134 cell line; patient tumor-derived cells) (human) (UniProt O00182); assay: flow cytometry, % Gal9+ of CD11b+ cells, S2 fraction, pancreatic adenocarcinoma biopsy; antibody concentration not given
[2] = target: human galectin-9 on the cell surface (CRL-2134 cell line; patient tumor-derived cells) (human) (UniProt O00182); assay: flow cytometry, % Gal9+ of CD11b+ cells, S3 fraction, second pancreatic adenocarcinoma biopsy; antibody concentration not given
[3] = target: human galectin-9 on the cell surface (CRL-2134 cell line; patient tumor-derived cells) (human) (UniProt O00182); assay: flow cytometry, % Gal9+ of EpCam+ cells, S2 fraction, colorectal carcinoma biopsy; antibody concentration not given
[4] = target: human galectin-9 on the cell surface (CRL-2134 cell line; patient tumor-derived cells) (human) (UniProt O00182); assay: flow cytometry, % Gal9+ of EpCam+ cells, S2 fraction, pancreatic adenocarcinoma biopsy; antibody concentration not given
[5] = target: human galectin-9 on the cell surface (CRL-2134 cell line; patient tumor-derived cells) (human) (UniProt O00182); assay: flow cytometry, % Gal9+ of CD11b+ cells, S2 fraction, colorectal carcinoma biopsy; antibody concentration not given
[6] = target: human galectin-9 on the cell surface (CRL-2134 cell line; patient tumor-derived cells) (human) (UniProt O00182); assay: flow cytometry, % Gal9+ of CD3+ cells, S3 fraction, colorectal carcinoma biopsy; antibody concentration not given
[7] = target: human galectin-9 on the cell surface (CRL-2134 cell line; patient tumor-derived cells) (human) (UniProt O00182); assay: flow cytometry, % Gal9+ of EpCam+ cells, S3 fraction, pancreatic adenocarcinoma biopsy; antibody concentration not given
[8] = target: human galectin-9 on the cell surface (CRL-2134 cell line; patient tumor-derived cells) (human) (UniProt O00182); assay: flow cytometry on cells from human tumor biopsy organoid fractions
[9] = target: human galectin-9 on the cell surface (CRL-2134 cell line; patient tumor-derived cells) (human) (UniProt O00182); assay: flow cytometry, % Gal9+ of CD3+ cells, S3 fraction, pancreatic adenocarcinoma biopsy; antibody concentration not given
[10] = target: human galectin-9 on the cell surface (CRL-2134 cell line; patient tumor-derived cells) (human) (UniProt O00182); assay: flow cytometry, % Gal9+ of CD11b+ cells, S3 fraction, colorectal carcinoma biopsy; antibody concentration not given
[11] = target: human galectin-9 on the cell surface (CRL-2134 cell line; patient tumor-derived cells) (human) (UniProt O00182); assay: flow cytometry, % Gal9+ of CD3+ cells, S2 fraction, second pancreatic adenocarcinoma biopsy; antibody concentration not given
[12] = target: human galectin-9 on the cell surface (CRL-2134 cell line; patient tumor-derived cells) (human) (UniProt O00182); assay: flow cytometry, % Gal9+ of EpCam+ cells, S3 fraction, colorectal carcinoma biopsy; antibody concentration not given
[13] = target: human galectin-9 on the cell surface (CRL-2134 cell line; patient tumor-derived cells) (human) (UniProt O00182); assay: flow cytometry, % Gal9+ of CD11b+ cells, S2 fraction, second pancreatic adenocarcinoma biopsy; antibody concentration not given
[14] = target: human galectin-9 on the cell surface (CRL-2134 cell line; patient tumor-derived cells) (human) (UniProt O00182); assay: flow cytometry, % Gal9+ of EpCam+ cells, S3 fraction, second pancreatic adenocarcinoma biopsy; antibody concentration not given
[15] = target: human galectin-9 on the cell surface (CRL-2134 cell line; patient tumor-derived cells) (human) (UniProt O00182); assay: flow cytometry, % Gal9+ of CD11b+ cells, S3 fraction, pancreatic adenocarcinoma biopsy; antibody concentration not given
[16] = target: human galectin-9 on the cell surface (CRL-2134 cell line; patient tumor-derived cells) (human) (UniProt O00182); assay: flow cytometry, % Gal9+ of CD3+ cells, S2 fraction, colorectal carcinoma biopsy; antibody concentration not given
[17] = target: human galectin-9 on the cell surface (CRL-2134 cell line; patient tumor-derived cells) (human) (UniProt O00182); assay: flow cytometry, % Gal9+ of CD3+ cells, S2 fraction, pancreatic adenocarcinoma biopsy; antibody concentration not given
[18] = target: human galectin-9 on the cell surface (CRL-2134 cell line; patient tumor-derived cells) (human) (UniProt O00182); assay: flow cytometry, % Gal9+ of EpCam+ cells, S2 fraction, second pancreatic adenocarcinoma biopsy; antibody concentration not given
[19] = target: human galectin-9 on the cell surface (CRL-2134 cell line; patient tumor-derived cells) (human) (UniProt O00182); assay: flow cytometry, % Gal9+ of CD3+ cells, S3 fraction, second pancreatic adenocarcinoma biopsy; antibody concentration not given
[20] = target: mouse galectin-9 on or in KPC mouse pancreatic cancer cells (mouse) (UniProt O08573); assay: flow cytometry on permeabilized KPC cells
[21] = target: cynomolgus galectin-9 CRD2 domain (cynomolgus monkey); assay: bead based binding
[22] = target: human galectin-9 on the cell surface (CRL-2134 cell line; patient tumor-derived cells) (human) (UniProt O00182); assay: cell based binding on CRL-2134 cells
[23] = target: human galectin-9 on the cell surface (CRL-2134 cell line; patient tumor-derived cells) (human) (UniProt O00182); assay: cell surface staining, flow cytometry on CRL-2134 cells
[24] = target: galectin-9 on the HuProt Human Proteome Microarray (human) (UniProt O00182); assay: HuProt Human Proteome Microarray, fluorescent secondary antibody
[25] = target: galectin-9 on the HuProt Human Proteome Microarray (human) (UniProt O00182); assay: HuProt protein array, cross-reactivity assay

binding [1]: binds
binding [2]: binds
binding [3]: binds
binding [4]: binds
binding [5]: binds
binding [6]: binds
binding [7]: binds
binding [8]: binds
binding [9]: binds
binding [10]: binds
binding [11]: binds
binding [12]: binds
binding [13]: binds
binding [14]: binds
binding [15]: binds
binding [16]: binds
binding [17]: binds
binding [18]: binds
binding [19]: binds
binding [20]: binds
B1: G9.2-17 Fab (Fab, V domains shown)
VH: EVQLVESGGGLVQPGGSLRLSCAASGFTVSSSSIHWVRQAPGKGLEWVAYISSSSGYTYYADSVKGRFTISADTSKNTAYLQMNSLRAEDTAVYYCARYWSYPSWWPYRGMDYWGQGTLVTVSS
VL: DIQMTQSPSSLSASVGDRVTITCRASQSVSSAVAWYQQKPGKAPKLLIYSASSLYSGVPSRFSGSRSGTDFTLTISSLQPEDFATYYCQQSSTDPITFGQGTKVEIKR

binding [21]: binds
binding [22]: binds
B2: G9.2-17 mIgG1 (mouse IgG1 version of G9.2-17) (antibody, V domains shown)
VH: EVQLVESGGGLVQPGGSLRLSCAASGFTVSSSSIHWVRQAPGKGLEWVAYISSSSGYTYYADSVKGRFTISADTSKNTAYLQMNSLRAEDTAVYYCARYWSYPSWWPYRGMDYWGQGTLVTVSS
VL: DIQMTQSPSSLSASVGDRVTITCRASQSVSSAVAWYQQKPGKAPKLLIYSASSLYSGVPSRFSGSRSGTDFTLTISSLQPEDFATYYCQQSSTDPITFGQGTKVEIKR
notes: Mouse IgG1 backbone; also called mIgG1 G9.2-17; G9.2-17 IgG1 mouse mAb

binding [23]: binds
binding [24]: binds
binding [25]: binds
B3: anti-Galectin-9 antibody G9.2-17 (IgG4) (antibody, V domains shown)
VH: EVQLVESGGGLVQPGGSLRLSCAASGFTVSSSSIHWVRQAPGKGLEWVAYISSSSGYTYYADSVKGRFTISADTSKNTAYLQMNSLRAEDTAVYYCARYWSYPSWWPYRGMDYWGQGTLVTVSS
VL: DIQMTQSPSSLSASVGDRVTITCRASQSVSSAVAWYQQKPGKAPKLLIYSASSLYSGVPSRFSGSRSGTDFTLTISSLQPEDFATYYCQQSSTDPITFGQGTKVEIKR
notes: also called G9.2-17 (Ig4); G9.2-17 hIgG4 Fab Arm Exchange mut
